{"sequences": {"note": "Amino acid sequences for entries named in this document (tags omitted). A change or cut given only in a name is not applied to a line headed by its entry.", "UniProt P54259": "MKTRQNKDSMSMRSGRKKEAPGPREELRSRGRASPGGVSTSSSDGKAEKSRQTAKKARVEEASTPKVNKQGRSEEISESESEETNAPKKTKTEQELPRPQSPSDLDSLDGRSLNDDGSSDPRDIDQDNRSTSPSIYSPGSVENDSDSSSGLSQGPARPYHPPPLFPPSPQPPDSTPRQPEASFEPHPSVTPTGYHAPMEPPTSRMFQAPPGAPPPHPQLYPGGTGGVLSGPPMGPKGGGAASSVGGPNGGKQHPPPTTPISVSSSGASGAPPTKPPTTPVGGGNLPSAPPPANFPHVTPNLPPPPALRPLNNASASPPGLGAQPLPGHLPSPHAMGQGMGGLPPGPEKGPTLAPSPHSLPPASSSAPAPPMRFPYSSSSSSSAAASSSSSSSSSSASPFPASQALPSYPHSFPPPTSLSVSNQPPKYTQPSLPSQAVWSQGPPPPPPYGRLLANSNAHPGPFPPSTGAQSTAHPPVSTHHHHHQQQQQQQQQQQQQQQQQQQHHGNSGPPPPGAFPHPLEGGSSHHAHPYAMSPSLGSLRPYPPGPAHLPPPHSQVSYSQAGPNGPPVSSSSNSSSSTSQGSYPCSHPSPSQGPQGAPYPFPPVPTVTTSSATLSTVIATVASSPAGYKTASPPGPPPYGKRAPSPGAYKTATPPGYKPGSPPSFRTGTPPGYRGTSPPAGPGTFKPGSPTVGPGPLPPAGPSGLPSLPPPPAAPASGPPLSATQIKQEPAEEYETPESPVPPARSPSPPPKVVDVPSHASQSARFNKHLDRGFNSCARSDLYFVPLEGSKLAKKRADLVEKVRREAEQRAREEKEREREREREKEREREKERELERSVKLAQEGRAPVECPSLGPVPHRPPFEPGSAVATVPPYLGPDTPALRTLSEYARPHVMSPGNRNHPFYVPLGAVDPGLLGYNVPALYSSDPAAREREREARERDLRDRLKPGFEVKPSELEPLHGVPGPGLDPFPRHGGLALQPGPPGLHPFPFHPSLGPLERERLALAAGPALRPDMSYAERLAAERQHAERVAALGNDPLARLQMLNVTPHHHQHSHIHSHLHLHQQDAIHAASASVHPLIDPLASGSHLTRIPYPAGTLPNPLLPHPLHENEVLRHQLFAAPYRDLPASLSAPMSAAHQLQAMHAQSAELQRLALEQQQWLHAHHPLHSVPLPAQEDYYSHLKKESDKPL", "UniProt P46439": "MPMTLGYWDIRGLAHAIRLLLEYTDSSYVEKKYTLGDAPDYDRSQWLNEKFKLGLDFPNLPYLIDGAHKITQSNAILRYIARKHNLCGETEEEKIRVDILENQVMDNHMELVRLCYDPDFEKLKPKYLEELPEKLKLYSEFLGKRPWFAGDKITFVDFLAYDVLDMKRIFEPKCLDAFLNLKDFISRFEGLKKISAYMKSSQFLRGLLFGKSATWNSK", "UniProt P54792": "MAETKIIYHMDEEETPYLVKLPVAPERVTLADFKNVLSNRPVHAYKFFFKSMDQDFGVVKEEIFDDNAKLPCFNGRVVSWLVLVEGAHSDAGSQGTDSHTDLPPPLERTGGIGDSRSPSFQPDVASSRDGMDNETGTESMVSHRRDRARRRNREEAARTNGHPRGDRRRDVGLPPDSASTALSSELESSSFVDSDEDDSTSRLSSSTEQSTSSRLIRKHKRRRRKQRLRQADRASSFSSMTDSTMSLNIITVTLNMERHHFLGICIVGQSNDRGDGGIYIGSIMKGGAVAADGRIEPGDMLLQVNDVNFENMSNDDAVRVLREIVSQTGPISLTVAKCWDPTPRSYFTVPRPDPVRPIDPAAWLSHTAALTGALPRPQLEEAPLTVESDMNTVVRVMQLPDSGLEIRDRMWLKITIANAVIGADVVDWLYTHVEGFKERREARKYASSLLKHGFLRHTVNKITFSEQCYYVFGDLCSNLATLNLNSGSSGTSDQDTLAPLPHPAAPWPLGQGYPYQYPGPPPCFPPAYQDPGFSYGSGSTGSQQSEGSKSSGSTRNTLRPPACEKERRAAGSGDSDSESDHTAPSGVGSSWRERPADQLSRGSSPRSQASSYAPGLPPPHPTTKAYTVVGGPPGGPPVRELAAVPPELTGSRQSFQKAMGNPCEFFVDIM", "UniProt P48059, whole entry": "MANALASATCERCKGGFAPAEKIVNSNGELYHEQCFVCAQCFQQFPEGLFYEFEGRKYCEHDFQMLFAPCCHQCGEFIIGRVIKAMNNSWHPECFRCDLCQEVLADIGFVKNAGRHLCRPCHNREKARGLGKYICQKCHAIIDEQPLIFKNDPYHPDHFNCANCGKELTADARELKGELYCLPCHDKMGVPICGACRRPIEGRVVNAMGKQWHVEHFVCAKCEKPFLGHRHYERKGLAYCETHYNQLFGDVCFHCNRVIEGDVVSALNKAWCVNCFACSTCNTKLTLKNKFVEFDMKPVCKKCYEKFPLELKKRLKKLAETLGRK", "UniProt P49591": "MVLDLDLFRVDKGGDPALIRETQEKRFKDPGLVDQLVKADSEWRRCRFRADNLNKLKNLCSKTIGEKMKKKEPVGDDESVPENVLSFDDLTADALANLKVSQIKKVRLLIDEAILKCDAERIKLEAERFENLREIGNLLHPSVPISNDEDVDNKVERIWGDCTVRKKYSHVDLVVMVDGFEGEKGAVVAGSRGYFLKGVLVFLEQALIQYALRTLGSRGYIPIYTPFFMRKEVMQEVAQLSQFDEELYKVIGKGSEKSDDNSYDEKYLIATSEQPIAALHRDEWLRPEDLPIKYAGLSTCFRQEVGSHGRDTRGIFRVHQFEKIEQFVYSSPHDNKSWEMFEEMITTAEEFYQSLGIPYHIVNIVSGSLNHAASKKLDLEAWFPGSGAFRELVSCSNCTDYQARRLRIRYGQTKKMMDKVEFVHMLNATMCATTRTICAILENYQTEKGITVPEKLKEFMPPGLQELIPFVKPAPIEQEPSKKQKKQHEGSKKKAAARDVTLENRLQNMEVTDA", "UniProt P52701": "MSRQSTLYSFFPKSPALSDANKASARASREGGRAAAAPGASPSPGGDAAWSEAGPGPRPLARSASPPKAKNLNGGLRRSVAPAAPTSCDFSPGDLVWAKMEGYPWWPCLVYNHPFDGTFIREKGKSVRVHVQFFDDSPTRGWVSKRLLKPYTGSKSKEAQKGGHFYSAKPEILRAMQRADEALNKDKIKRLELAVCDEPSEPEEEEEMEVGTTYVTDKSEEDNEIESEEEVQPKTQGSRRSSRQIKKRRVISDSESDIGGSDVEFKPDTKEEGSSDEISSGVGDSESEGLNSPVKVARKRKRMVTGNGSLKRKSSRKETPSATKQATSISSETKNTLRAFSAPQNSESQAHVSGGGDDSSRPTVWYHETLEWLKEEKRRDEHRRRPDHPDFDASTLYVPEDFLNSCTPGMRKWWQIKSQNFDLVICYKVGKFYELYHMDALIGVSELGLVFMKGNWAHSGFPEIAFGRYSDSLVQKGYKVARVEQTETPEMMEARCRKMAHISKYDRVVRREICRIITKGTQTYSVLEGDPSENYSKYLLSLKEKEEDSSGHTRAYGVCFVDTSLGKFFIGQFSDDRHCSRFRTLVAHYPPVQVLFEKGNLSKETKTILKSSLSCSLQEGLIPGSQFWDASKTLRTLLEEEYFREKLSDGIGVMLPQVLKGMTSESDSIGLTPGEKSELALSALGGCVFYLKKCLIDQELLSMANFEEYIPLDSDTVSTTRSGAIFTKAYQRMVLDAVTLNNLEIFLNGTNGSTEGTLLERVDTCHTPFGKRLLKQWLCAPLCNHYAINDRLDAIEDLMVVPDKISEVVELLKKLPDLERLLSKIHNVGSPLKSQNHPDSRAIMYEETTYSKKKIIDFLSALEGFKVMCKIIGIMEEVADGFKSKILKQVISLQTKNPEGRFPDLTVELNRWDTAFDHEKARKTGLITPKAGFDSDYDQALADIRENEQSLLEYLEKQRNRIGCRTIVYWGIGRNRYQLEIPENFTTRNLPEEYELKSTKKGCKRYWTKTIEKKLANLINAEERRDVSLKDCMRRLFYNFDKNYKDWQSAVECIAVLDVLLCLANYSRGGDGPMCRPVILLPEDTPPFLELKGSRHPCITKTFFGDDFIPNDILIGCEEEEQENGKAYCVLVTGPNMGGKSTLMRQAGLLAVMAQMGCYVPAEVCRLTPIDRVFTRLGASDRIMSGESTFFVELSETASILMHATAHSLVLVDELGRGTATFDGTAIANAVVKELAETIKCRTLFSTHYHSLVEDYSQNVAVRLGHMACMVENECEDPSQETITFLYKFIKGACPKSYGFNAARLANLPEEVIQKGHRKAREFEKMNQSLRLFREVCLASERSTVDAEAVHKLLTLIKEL", "UniProt P51788": "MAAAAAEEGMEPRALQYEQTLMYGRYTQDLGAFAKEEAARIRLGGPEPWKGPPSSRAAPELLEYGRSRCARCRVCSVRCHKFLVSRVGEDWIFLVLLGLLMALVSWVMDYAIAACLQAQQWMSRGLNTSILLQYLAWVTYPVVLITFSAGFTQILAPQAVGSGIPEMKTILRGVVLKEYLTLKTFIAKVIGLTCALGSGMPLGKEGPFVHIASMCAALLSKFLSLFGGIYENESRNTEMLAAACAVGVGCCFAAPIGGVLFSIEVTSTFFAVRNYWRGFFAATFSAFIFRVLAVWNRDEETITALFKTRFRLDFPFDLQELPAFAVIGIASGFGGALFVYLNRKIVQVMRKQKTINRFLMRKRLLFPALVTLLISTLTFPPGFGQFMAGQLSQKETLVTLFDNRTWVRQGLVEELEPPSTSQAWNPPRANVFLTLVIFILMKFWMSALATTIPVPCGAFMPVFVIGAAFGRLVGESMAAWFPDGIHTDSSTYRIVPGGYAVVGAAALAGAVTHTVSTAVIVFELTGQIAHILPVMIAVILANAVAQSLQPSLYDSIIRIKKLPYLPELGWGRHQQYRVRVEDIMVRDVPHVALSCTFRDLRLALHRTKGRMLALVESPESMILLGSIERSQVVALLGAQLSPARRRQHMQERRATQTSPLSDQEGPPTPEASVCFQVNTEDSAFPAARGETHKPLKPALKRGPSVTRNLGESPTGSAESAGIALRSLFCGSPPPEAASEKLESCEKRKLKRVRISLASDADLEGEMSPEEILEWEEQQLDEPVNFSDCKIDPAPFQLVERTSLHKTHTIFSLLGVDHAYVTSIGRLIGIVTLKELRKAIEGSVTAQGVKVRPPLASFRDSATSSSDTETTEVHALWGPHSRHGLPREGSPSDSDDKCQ", "UniProt P46736, whole entry": "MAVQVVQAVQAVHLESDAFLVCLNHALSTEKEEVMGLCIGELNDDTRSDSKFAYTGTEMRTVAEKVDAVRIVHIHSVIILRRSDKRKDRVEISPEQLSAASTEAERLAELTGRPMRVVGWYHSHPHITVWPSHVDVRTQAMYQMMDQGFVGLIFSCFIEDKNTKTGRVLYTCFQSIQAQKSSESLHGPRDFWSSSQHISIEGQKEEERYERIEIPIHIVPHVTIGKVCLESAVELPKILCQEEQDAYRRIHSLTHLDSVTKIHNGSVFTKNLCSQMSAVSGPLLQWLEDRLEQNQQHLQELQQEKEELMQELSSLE", "UniProt P52788": "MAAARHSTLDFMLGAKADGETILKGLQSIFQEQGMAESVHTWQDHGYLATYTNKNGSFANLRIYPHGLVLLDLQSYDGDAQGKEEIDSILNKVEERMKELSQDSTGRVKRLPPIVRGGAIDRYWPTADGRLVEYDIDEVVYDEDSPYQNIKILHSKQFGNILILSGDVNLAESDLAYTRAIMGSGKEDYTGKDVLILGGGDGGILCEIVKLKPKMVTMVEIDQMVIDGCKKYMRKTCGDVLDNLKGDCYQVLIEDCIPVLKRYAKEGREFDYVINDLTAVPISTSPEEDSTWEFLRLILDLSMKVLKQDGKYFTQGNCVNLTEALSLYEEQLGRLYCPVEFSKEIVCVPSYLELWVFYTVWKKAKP", "UniProt P49773": "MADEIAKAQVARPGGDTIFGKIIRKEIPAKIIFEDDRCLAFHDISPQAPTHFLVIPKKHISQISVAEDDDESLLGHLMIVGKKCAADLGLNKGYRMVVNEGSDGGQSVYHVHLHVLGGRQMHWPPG", "UniProt P50991": "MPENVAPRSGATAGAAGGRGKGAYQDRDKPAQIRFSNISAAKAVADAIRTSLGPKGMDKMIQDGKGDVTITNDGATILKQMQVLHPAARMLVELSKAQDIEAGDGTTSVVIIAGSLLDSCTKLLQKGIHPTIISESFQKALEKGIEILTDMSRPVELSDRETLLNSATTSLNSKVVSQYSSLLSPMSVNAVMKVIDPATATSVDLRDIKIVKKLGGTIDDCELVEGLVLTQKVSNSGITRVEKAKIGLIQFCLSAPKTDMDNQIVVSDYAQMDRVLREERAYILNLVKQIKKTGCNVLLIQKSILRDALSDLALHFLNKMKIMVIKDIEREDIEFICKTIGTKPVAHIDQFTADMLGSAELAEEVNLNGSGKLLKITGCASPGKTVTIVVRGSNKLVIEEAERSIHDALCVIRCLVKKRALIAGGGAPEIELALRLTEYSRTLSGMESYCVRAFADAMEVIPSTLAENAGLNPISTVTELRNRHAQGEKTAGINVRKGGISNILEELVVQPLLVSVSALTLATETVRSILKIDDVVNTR"}, "source": "the supplement of paper PMC12819154", "about": "“High-throughput peptide-centric local stability assay extends protein–ligand identification to membrane proteins, tissues and bacteria” (Nature Structural & Molecular Biology, 2025)", "note": "The list shows a part of the results. Most values lie at the level of the controls, where differences are scatter."}
{"compound": "CN[C@@H]1C[C@H]2O[C@@](C)([C@@H]1OC)n1c3ccccc3c3c4c(c5c6ccccc6n2c5c31)C(=O)NC4 [staurosporine]", "test": "log2 fold change of tryptic peptide abundance, ligand vs vehicle (limited proteolysis) (log2 ratio); higher = more trypsin-susceptible (destabilized)", "details": "ligand concentration: 20 uM; sample: K562 cleared lysate; digestion: 4 min, 22 C (HT-PELSA RT4min, Orbitrap Astral)"}
{"target": "ATN1 (peptide sequence: DIDQDNR, peptide start residue: 703) (UniProt P54259)", "log2 fold change": -0.243}
{"target": "RPL28 (peptide sequence: TVGVEPAADGK, peptide start residue: 48) (UniProt P46779)", "log2 fold change": -0.0987}
{"target": "NUDT2 (peptide sequence: DYDVEIR, peptide start residue: 100) (UniProt P50583)", "log2 fold change": 0.299}
{"target": "GSTM5 (peptide sequence: LGLDFPNLPYLIDGAHK, peptide start residue: 53) (UniProt P46439)", "log2 fold change": -0.0855}
{"target": "RPL14 (peptide sequence: MTDFDRFKVMK, peptide start residue: 104) (UniProt P50914)", "log2 fold change": 0.446}
{"target": "PSMB2 (peptide sequence: FILNLPTFSVR, peptide start residue: 171) (UniProt P49721)", "log2 fold change": -0.143}
{"target": "UniProt P54792 (peptide sequence: LPCFNGR, peptide start residue: 78)", "log2 fold change": -0.113}
{"target": "LIMS1 (peptide sequence: LAETLGRK, peptide start residue: 318) (UniProt P48059)", "log2 fold change": 0.323}
{"target": "FNTB (peptide sequence: FNHLVPR, peptide start residue: 64) (UniProt P49356)", "log2 fold change": -0.183}
{"target": "UniProt P49591 (peptide sequence: IKLEAERFENLR, peptide start residue: 122)", "log2 fold change": -0.129}
{"target": "CAPZB (peptide sequence: NDLVEALKR, peptide start residue: 260) (UniProt P47756)", "log2 fold change": 0.1}
{"target": "RABIF (peptide sequence: VLQPGTALFSR, peptide start residue: 30) (UniProt P47224)", "log2 fold change": 0.14}
{"target": "MSH6 (peptide sequence: NLPEEYELK, peptide start residue: 989) (UniProt P52701)", "log2 fold change": 0.215}
{"target": "UniProt P51814 (peptide sequence: QENQNNLLSHVK, peptide start residue: 190)", "log2 fold change": 0.514}
{"target": "CLCN2 (peptide sequence: AAAAAEEGMEPR, peptide start residue: 2) (UniProt P51788)", "log2 fold change": 0.139}
{"target": "DNA2 (peptide sequence: FVLVGDHQQLPPLVLNR, peptide start residue: 782) (UniProt P51530)", "log2 fold change": -0.547}
{"target": "UTRN (peptide sequence: HPQLDYVFTLAQNLK, peptide start residue: 2280) (UniProt P46939)", "log2 fold change": -0.345}
{"target": "UniProt P52434 (peptide sequence: LHCESESFK, peptide start residue: 28)", "log2 fold change": 0.141}
{"target": "BRCC3 (peptide sequence: VVGWYHSHPHITVWPSHVDVR, peptide start residue: 117) (UniProt P46736)", "log2 fold change": -0.602}
{"target": "SULT1A1 (peptide sequence: LLKTHLPLALLPQTLLDQK, peptide start residue: 104) (UniProt P50225)", "log2 fold change": -0.564}
{"target": "RPL34 (peptide sequence: AFLIEEQKIVVK, peptide start residue: 94) (UniProt P49207)", "log2 fold change": 0.357}
{"target": "SMS (peptide sequence: NGSFANLR, peptide start residue: 55) (UniProt P52788)", "log2 fold change": -0.197}
{"target": "HINT1 (peptide sequence: CLAFHDISPQAPTHFLVIPK, peptide start residue: 38) (UniProt P49773)", "log2 fold change": -0.388}
{"target": "CLCN5 (peptide sequence: QCLVTHNGR, peptide start residue: 782) (UniProt P51795)", "log2 fold change": 0.576}
{"target": "MECP2 (peptide sequence: SAGKYDVYLINPQGK, peptide start residue: 116) (UniProt P51608)", "log2 fold change": -0.209}
{"target": "PPP3CC (peptide sequence: QTIETATVEAVEAR, peptide start residue: 436) (UniProt P48454)", "log2 fold change": -0.119}
{"target": "CCT4 (peptide sequence: IDDVVNTR, peptide start residue: 532) (UniProt P50991)", "log2 fold change": -0.163}
{"target": "UniProt P46734 (peptide sequence: LLMDLDINMR, peptide start residue: 107)", "log2 fold change": 0.109}
{"target": "PRIM2 (peptide sequence: MEFSGRK, peptide start residue: 1) (UniProt P49643)", "log2 fold change": 0.409}
